Measurements as given in patent US20250041451A1, “GENE THERAPY FOR HEARING LOSS” (Perceive Biotherapeutics, Inc., priority 2021, published 2025).
For at least one compound, name, drawing or mass did not settle the structure. Some of these results come from one statement about several compounds together.

System: cochlear hair cells (mouse cochlear explants)
Format: cell-based
Conditions: for number of viable hair cells: gentamycin 50 μM (16 h) treated explants co-administered with 0.5 μM test article, 3 days, untreated explants 17-52
Text: In some embodiments, an in vitro method is employed. An illustrative assay uses an aminoglycoside-induced model (using gentamycin) of hair cell death using cochlear explants. In brief, the cochleae are collected from test animal, e.g., mice. All cochleae are combined in the same dissection maintenance bath and plated as an individual sample. The following morning, high magnification digital images of cochlea are taken and cochlear explant is assigned to groups. A desired number of explants will be used for further gentamicin treatment. Test article and positive control article are dosed ˜6 hours either prior, together with, or following to gentamicin for a duration of up to 3 days. If the culture medium is replaced (e.g. when gentamicin is added/removed), the test or positive control article will be re-administered. The cochlea are cultured and observed for health and survival. At the end of the culture cochlear explants are bathed with buffer and processed for cochleogram. Following the fixation, all the cochlear explants undergo immunofluorescent staining with anti-Myosin VIIa and Phalloidin in order to specifically label the hair cells. The explants are then mounted on microscope slides, and imaged utilizing a confocal microscope using the same laser power settings for all samples. Cochlear fragment images are then divided into 20% fragments from the apex to the base. MyosinVIIa light intensity is quantified in each fragment and compared among groups. Image analysis is performed using an imaging platform, e.g., a Fiji image analysis platform. Explants are scanned using confocal microscope with filters for 488 nm and 594 nm wave lengths. […] Intensity of light coming from MyoVii is quantified in each fragment and compared among groups. […]
A blind counting of all hair cells (OHC & IHC undiscriminated) was performed on 4 to 6 zones of each explant (fragments 1, 2, 3, 4, 5 and 6) through the entire z stack generated. […] Cell density was determined by reporting each counting to the length of the fragment. […]

Row | Structure (SMILES) | number of viable hair cells | level of hair cells compared to gentamycin treated explants (0.5 μM test article + gentamycin 50 μM)
1 | CCSCc1ccc2c(c1)c1c3c(c4c5cc(CSCC)ccc5n5c4c1n2[C@H]1C[C@](O)(C(=O)OC)[C@]5(C)O1)CNC3=O [CEP-1347] | 0-18 hair cells/fragment | –
2 | CCN(CC)CCNC(=O)c1c(C)[nH]c(/C=C2\C(=O)Nc3ccc(F)cc32)c1C [Sunitinib, sunitinib] | 0-18 hair cells/fragment | same low level of hair cells as the gentamycin treated explants
